For three compounds, Kb results are on record in patent publication US20070225335A1, “Pyrazole Derivatives for Treating Condit Ions Mediated by Activation of the Adeno Sine A2B or A3 Receptor” (priority 2004, published 2007).

Sequences of proteins named here, by UniProt entry; tags and fusion partners are left off.
UniProt P29275, whole entry: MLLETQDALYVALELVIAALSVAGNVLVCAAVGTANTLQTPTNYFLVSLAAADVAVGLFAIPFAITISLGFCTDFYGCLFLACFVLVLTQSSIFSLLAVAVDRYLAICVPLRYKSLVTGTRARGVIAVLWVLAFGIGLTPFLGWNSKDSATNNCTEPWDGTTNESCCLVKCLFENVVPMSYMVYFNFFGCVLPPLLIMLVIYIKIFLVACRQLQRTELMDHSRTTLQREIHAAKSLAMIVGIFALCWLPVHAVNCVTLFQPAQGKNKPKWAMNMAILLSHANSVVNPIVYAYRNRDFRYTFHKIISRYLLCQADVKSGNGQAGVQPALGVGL

The match of structure and compound is tentative.

In this assay the target is human adenosine A2b receptor (Homo sapiens, UniProt P29275). In words: Adenosine A2b receptor reporter gene assay (luciferase, CHO-A2b cells, NECA agonist). The conditions noted are these: read-out: KB values in the reporter gene assay; CHO cells with pCRE-LUCI and human A2b receptor; shift of NECA concentration-response curve; antagonist at 100 nM or 1 μM; KB=[antagonist]/(concentration ratio−1). The protocol:
Adenosine A2b Receptor Reporter Gene Assay a) Culturing of Chinese Hamster Ovary (CHO) A2b Cell Line
CHO cells transfected with a Luciferase-expressing reporter plasmid (pCRE-LUCI) and with a plasmid carrying the human adenosine A2b receptor structural gene (pA2bRCV) are routinely cultured in Dulbecco's Modified Eagle Medium (DMEM)—supplemented with 10% v/v fetal calf serum (FCS), 2 mM L-glutamine, 0.4 mg/ml L-proline, 1 nM sodium selenite, 0.5 mg/ml Hygromycin B and 1 mg/ml Geneticin—at 37° C., 5% CO2 and 100% humidity. The cells are left to grow to confluence for 4-5 days. The cells obtained are passaged using trypsin/EDTA and split at a ratio of 1 in 5. […]
b) Preparation of cells for assay
Prior to the assay, the CHO-A2b cells are plated onto white 96-well View Plate tissue culture plates (Packard) at a density of 50,000 cells per well in 50 μl of DMEM, and the plates are incubated at 37° C., 5% CO2 and 100% humidity. […]
c) Preparation of Reference and Test Compounds
10 mM solutions of the reference compound, Xanthine Amine Cogener (XAC), and the test compound in dimethyl sulfoxide (DMSO) are prepared. […]
5′-N-ethylcarboxamidoadenosine (NECA), an adenosine A2b agonist, is prepared as a […] solution in DMSO and then diluted to 100 μM with Assay Buffer. […] 100 μl of Steady-Glo, a Luciferase assay substrate from Promega, is added to all wells to lyse the cells and generate luminescence in proportion to the amount of Lucifrease produced. The plates are left for a minimum of 5 minutes before being read on the luminescence program of a Topcount NXT microplate scintillation counter (ex Packard). Concentration—response curves are plotted from the luminescence data using Activitybase software and KB values for the antagonists under test are calculated from the shifts of the curve at a particular concentration (KB=[antagonist]/(concentration ratio−1)
With `O=C(Nc1cccc(F)c1)c1cnn(-c2cccc(Cl)c2)c1-c1ccncc1`, the Kb is 224 nM. The value for `O=C(Nc1cccnc1)c1cc(-c2ccncc2)n(-c2cccc(Cl)c2)n1` was 240 nM; that for `COc1cccc(NC(=O)c2cnn(-c3cccc(F)c3)c2-c2ccncc2)c1` was 41 nM.
